# From publication PMC3088716
# Results are given in words; binding and its absence hold for the method and conditions named. Binding seen in cells or lysates may run through a third protein. Binding calls can cover weak binding; strength is not graded here. Where a sequence is shown, tags or fusion partners need not be part of it.
# How the values were obtained:
# [1] = biological target: T1, HA-tagged ZNF541 (mouse) (UniProt Q0GGX2); experiment: co-IP; FLAG- and HA-tagged proteins co-expressed in HEK293 cells (harvested 24 hrs after transfection); whole cell lysates in MAPK buffer; agarose beads with anti-FLAG or anti-HA antibodies, 4°C, 2.5 hrs
# T1 sequence: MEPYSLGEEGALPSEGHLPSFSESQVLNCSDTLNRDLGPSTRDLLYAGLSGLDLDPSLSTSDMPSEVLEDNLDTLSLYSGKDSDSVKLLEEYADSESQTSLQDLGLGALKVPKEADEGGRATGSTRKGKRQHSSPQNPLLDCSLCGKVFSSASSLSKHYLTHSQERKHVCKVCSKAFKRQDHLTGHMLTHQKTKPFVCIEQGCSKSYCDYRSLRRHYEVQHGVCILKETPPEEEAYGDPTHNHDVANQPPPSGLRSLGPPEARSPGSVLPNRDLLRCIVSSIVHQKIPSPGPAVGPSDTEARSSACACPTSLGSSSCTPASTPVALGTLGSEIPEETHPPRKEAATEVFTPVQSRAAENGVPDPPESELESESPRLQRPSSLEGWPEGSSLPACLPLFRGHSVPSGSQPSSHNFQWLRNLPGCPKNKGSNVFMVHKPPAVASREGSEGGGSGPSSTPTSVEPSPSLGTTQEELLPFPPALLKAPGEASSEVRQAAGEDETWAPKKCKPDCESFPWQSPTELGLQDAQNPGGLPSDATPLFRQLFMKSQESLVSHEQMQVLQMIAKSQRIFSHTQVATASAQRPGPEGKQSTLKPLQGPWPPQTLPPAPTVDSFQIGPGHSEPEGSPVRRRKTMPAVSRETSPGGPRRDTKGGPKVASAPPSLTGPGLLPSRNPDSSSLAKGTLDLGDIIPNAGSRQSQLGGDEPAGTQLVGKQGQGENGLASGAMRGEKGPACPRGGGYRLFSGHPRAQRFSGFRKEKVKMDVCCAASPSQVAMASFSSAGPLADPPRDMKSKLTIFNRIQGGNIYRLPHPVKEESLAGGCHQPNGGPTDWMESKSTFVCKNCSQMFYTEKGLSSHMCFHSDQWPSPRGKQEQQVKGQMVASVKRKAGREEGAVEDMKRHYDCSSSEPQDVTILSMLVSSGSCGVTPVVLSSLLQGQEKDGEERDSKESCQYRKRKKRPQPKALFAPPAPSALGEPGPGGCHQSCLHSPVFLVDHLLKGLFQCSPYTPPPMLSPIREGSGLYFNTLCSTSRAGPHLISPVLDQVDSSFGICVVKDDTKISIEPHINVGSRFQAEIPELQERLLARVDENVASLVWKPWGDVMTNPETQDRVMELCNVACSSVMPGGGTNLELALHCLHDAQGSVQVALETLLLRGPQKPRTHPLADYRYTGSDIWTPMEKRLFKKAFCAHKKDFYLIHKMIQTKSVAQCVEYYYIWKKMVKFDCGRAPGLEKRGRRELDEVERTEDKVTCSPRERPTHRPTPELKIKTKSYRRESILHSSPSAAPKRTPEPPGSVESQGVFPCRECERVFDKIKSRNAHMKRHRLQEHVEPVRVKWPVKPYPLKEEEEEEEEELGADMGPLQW
# [2] = biological target: T2, HA-tagged Dnttip1 (mouse) (UniProt Q99LB0); experiment: as above
# T2 sequence: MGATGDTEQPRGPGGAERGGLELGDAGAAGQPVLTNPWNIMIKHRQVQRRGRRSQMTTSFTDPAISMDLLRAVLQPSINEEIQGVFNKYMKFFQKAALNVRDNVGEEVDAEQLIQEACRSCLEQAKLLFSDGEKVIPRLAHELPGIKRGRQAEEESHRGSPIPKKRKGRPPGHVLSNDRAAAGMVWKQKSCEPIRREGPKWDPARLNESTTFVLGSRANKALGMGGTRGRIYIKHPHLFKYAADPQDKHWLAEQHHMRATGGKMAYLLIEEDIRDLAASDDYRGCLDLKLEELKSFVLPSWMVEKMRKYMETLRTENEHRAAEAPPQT
Substance,binding [1],binding [2]
"FLAG-tagged PKG-Iβ(K390A), kinase dead (enzyme)",binds,binds
"FLAG-tagged PKG-Iβ(S64D), constitutively active (from UniProt Q13976-2) (enzyme)",binds,binds
